The whole screen tested about 390,000 compounds, of which about 910 (0.23%) were called active. Inconclusive results, whose numbers are uncertain, are shown with a selection of clear calls. Calls follow the shape of the dose curve; as a rule, active = well fitted inhibition curve with a large enough effect; inconclusive = small, poorly fitted or top-dose-only effect; inactive = no such curve, though single readings can be large or run the other way. Potencies beside an inconclusive call are fits to weak or partial responses and may not hold up.
molecular target: Ubiquitin carboxyl-terminal hydrolase 1 (Homo sapiens) (UniProt O94782); assay: Inhibitors of USP1/UAF1: Primary Screen; settings: recombinant USP1/UAF1, Ub-Rhodamine cleavage fluorescence; series mostly up to 57.1 µM; also: nearly all actives have a fitted effect of over 60% in size
Summary of the method: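 1 nM enzyme complex + cpd, 15 min RT; start with Ub-Rho 150nM final; kinetic fluorescence ex 480/em 540, 6 reads q60 s. Buffer 50mM HEPES pH 7.8, 0.5mM EDTA, 0.1 mg/ml BSA, 1mM TCEP, 0.01% Tween-20.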
Potency is read from the fitted curve at half-maximal effect.

By UniProt entry, the sequences of proteins in these tests, tags left out. Where a name states a change or a piece, a line headed by the entry shows the natural chain unless it says otherwise.
UniProt O94782: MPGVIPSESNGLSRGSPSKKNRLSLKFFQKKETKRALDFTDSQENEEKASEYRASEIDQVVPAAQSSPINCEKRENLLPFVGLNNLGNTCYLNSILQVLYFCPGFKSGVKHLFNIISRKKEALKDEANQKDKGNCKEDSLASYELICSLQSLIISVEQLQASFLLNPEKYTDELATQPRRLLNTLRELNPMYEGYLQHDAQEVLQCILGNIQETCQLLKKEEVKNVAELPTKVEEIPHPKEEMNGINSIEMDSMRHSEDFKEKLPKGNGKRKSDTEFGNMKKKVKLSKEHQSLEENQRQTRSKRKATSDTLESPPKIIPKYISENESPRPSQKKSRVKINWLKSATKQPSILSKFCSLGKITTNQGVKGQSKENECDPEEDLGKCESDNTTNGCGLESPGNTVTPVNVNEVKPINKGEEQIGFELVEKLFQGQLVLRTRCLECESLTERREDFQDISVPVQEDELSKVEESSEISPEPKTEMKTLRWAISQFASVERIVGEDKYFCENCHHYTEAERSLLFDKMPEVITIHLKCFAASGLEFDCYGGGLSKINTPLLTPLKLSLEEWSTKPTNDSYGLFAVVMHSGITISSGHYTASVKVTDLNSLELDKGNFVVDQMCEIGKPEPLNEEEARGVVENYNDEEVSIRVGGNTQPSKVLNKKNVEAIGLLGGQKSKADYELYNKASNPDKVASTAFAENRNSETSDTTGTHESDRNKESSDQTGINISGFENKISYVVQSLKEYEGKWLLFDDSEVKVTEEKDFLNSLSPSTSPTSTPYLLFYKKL

Row | SMILES | Potency
1 | CC(Sc1nc(N)c2c3c(sc2n1)CSC(C)(C)C3)C(=O)Nc1ccccc1 (stereo not given) | inconclusive: 50.1 µM [inhibitor, partial curve, poor fit]
2 | COc1ccc(C2C(C(=O)NCc3ccco3)c3ccccc3C(=O)N2C)cc1 (stereo not given) | inconclusive: 3.16 µM [inhibitor, partial curve]
3 | COc1cc2c(cc1OC)C1c3ccc(OC)c(OC)c3OCC1(O)C2 (stereo not given) | inactive
4 | CC1C/C(=C/c2cccn2C)C(=O)/C(=C/c2cccn2C)C1 (stereo not given) | inconclusive: 35.5 µM [inhibitor, single point]
5 | NC(CSC(c1ccccc1)(c1ccccc1)c1ccc(-c2ccccc2)cc1)C(=O)O (stereo not given) | inconclusive: 0.282 µM [inhibitor, full curve, poor fit]
6 | NC(=O)c1cc([N+](=O)[O-])ccc1NCc1ccc(N)cc1 | inconclusive: 6.31 µM [inhibitor, partial curve]
7 | Clc1ss/c(=N\c2ccccn2)c1Cl | inactive
8 | Cc1ccc(C[n+]2ccccc2)cc1 | inconclusive: 44.7 µM [inhibitor, partial curve, poor fit]
9 | Cc1ccccc1CC(=O)N1CC(C)OC(C)C1 (stereo not given) | inactive
10 | COc1cccc(-c2ncc3ccccc3c2COC(=O)N2CCCCC2)c1 | inconclusive: 25.1 µM [inhibitor, partial curve]
11 | C=CCC[C@@H](Cc1ccc(F)cc1)C(=O)O[C@H](CNC(=O)[C@@H](CC=C)CC(=O)N[C@H](CO)Cc1ccccc1)c1ccccc1 | inconclusive: 0.282 µM [inhibitor, full curve, poor fit]
12 | O=C1NC2c3c(I)sc(I)c3C(=O)C2O1 (stereo not given) | inactive
13 | Cc1cc(C)cc(Oc2c(C(F)(F)F)oc3cc(OCC(=O)NC4CCCCC4)ccc3c2=O)c1 | inconclusive: 5.62 µM [inhibitor, partial curve]
14 | COc1ccc(CNC(=O)Cc2c(C(=O)O)[nH]c3ccccc23)cc1 | inconclusive: 0.282 µM [inhibitor, full curve, poor fit]
15 | COC(C[C@@H]1O[C@H]1C(=O)[C@@H](C)OCc1ccccc1)OC | inconclusive: 89.1 µM [inhibitor, partial curve, poor fit]
16 | CC(C)Oc1ccc(CNC(=O)c2cccc(NC(=O)N3CCSc4ncccc43)c2)cc1 | inconclusive: 0.282 µM [inhibitor, full curve]
17 | N#CC(C#N)=C1C=C2C=C(N3CCCCC3)CCC2CC1 (stereo not given) | inconclusive: 2.51 µM [inhibitor, full curve, poor fit]
18 | Oc1ccc(N=Nc2ccc3ccccc3c2)cc1 | inactive
19 | O=S1(=O)NC2c3ccccc3CC2O1 (stereo not given) | inconclusive: 39.8 µM [inhibitor, partial curve]
20 | COc1ccc(/C=C2/N=C(c3cccs3)OC2=O)cc1OC(C)C | inconclusive: 35.5 µM [inhibitor, single point]
21 | COc1ccc(CCNC(=O)Cn2ncc3c(=O)oc4ccccc4c32)c(OC)c1 | inconclusive: 10 µM [inhibitor, partial curve]
22 | Cc1ccc(C2=NC3(CCCC3)N=C2SCC(=O)Nc2ccc3c(c2)OCCO3)cc1 | inactive

Filtered by structure, those above containing a COOH group
Row | SMILES | Potency
5 | NC(CSC(c1ccccc1)(c1ccccc1)c1ccc(-c2ccccc2)cc1)C(=O)O (stereo not given) | inconclusive: 0.282 µM [inhibitor, full curve, poor fit]
14 | COc1ccc(CNC(=O)Cc2c(C(=O)O)[nH]c3ccccc23)cc1 | inconclusive: 0.282 µM [inhibitor, full curve, poor fit]

(cont.)

Row | SMILES | Potency
23 | O=C(COC(=O)c1cccc(F)c1)Nc1cccc(S(=O)(=O)N2CCCCC2)c1 | inconclusive: 3.55 µM [inhibitor, full curve]
24 | O=C1/C(=C/c2ccc(F)cc2)SC(=S)N1CCCC(=O)N1CCCCC1CCO (stereo not given) | inconclusive: 39.8 µM [inhibitor, partial curve]
25 | O=C(O)C1Nc2ccc(Br)cc2C2C=CCC12 (stereo not given) | inconclusive: 39.8 µM [inhibitor, partial curve]
26 | CN1CCc2nc3sc(C(=O)C45CC6CC(CC(C6)C4)C5)c(N)c3cc2C1 | inconclusive: 25.1 µM [inhibitor, single point]
27 | Cc1ccc(S(=O)(=O)N2CCOCC2)cc1C(=O)Nc1nc(-c2ccccn2)cs1 | inactive
28 | O=C1CC2(CCCCCC2)Oc2ccccc21 | inconclusive: 11.2 µM [inhibitor, partial curve]
29 | COc1ccc(OCC(=O)NCc2ccc3c(c2)CCN3C(=O)c2ccc(F)cc2)cc1 | inconclusive: 158 µM [inhibitor, partial curve, poor fit]
30 | C=CC[C@H](CC(=O)NCCO)C(=O)N[C@@H](COC(=O)[C@@H](CC=C)Cc1ccc(F)cc1)Cc1c[nH]c2ccccc12 | inconclusive: 50.1 µM [inhibitor, partial curve, poor fit]
31 | Cc1c(C(=O)c2ccc(F)cc2F)c2ccccn2c1CCc1ccccn1 | inconclusive: 2.24 µM [inhibitor, full curve, poor fit]
32 | CCCCN(C(=O)Cc1ccc(S(=O)(=O)N2CCOCC2)s1)c1c(N)n(CCCC)c(=O)[nH]c1=O | inactive
33 | COc1ccc2nc3cccc(OC)c3nc2c1 | inconclusive: 39.8 µM [inhibitor, partial curve, poor fit]
34 | COC(C[C@H]1O[C@H]1[C@@H](O)[C@H](C)OCc1ccccc1)OC | inconclusive: 0.178 µM [inhibitor, full curve]
35 | CCN(CC)C(=O)c1sc2c(c1C)c(=O)n(-c1ccc(OC)cc1OC)c(=O)n2CC(=O)c1ccc(Cl)cc1 | inconclusive: 50.1 µM [inhibitor, partial curve, poor fit]
36 | Cc1ccc(NC(=S)NC(=O)c2ccc(-c3ccc(Cl)cc3)o2)c(O)c1 | inactive
37 | Cc1ccccc1-c1noc(-c2ccc(N3CCOCC3)c([N+](=O)[O-])c2)n1 | inconclusive: 44.7 µM [inhibitor, partial curve, poor fit]
38 | COc1ccc(NC(=O)CN2CCc3ccccc3C2)cc1OC | inconclusive: 5.01 µM [inhibitor, full curve, poor fit]
39 | O=c1ccc(/C=C/c2ccccc2)nn1Cc1ccccc1Cl | inconclusive: 89.1 µM [inhibitor, partial curve, poor fit]
40 | CN1CCN(c2ccc(S(=O)(=O)N3CCCCC3)cc2NC(=O)COc2cccc(Cl)c2)CC1 | inactive
41 | N#Cc1nc(-c2ccccc2F)oc1N1CCCCC1 | inactive
42 | CC(=O)NC(c1ccccc1)c1cc(Cl)c2cccnc2c1O (stereo not given) | inactive
43 | Cc1cc(C)c2nc(N(Cc3cccnc3)C(=O)c3cccs3)sc2c1 | inconclusive: 44.7 µM [inhibitor, partial curve, poor fit]
44 | Nn1c(COc2ccccc2F)nnc1SCC(=O)NC1CCS(=O)(=O)C1 (stereo not given) | inconclusive: 0.282 µM [inhibitor, full curve, poor fit]

Row | SMILES | Potency
45 | CCOc1ccccc1CNC(=O)Cn1c(=O)c2cccn2c2ccc(F)cc21 | inactive
46 | COc1ccc(Nc2nc3ccc(C)cc3nc2-n2nc(C)cc2C)cc1Cl | inactive
47 | Cc1ccc(Sc2ncccc2C(=O)NCc2cc([N+](=O)[O-])ccc2O)c(C)c1 | inconclusive: 100 µM [inhibitor, partial curve, poor fit]
48 | C[C@@H]1CN([C@H](C)CO)C(=O)CCCn2cc(nn2)CO[C@H]1CN(C)S(=O)(=O)c1ccccc1 | inconclusive: 0.282 µM [inhibitor, full curve, poor fit]
49 | O=[N+]([O-])c1ccc(Nc2ccc3ccccc3c2)nc1 | inactive
50 | Cc1csc(SCC(=O)Nc2sccc2C#N)n1 | inconclusive: 20 µM [inhibitor, partial curve]
51 | COC(=O)c1c(NC(=O)c2ccc(Cl)c(Cl)c2)sc2c1CCCC2 | inconclusive: 39.8 µM [inhibitor, partial curve, poor fit]
52 | CC(=O)C(Cc1ccccc1)NC(=O)COC(=O)c1cc(S(=O)(=O)N2CCOCC2)ccc1F (stereo not given) | inconclusive: 0.251 µM [inhibitor, full curve, poor fit]
53 | COC(=O)c1cc(NC(=O)CSC2=NCCS2)cc(C(=O)OC)c1 | inconclusive: 44.7 µM [inhibitor, single point]
54 | CC1=C(C(=O)OCc2ccc(C)cc2)C(c2ccccc2C(F)(F)F)CC(=O)N1 (stereo not given) | inconclusive: 2.82 µM [inhibitor, partial curve]
55 | O=C(Nc1ncccn1)C1c2ccccc2Oc2ccccc21 | inactive
56 | COc1ccccc1NC(=O)c1cc2c(=O)n(Cc3cccs3)ccc2nc1C | inactive
57 | CCOC(=O)[C@@H]1[C@H]2COc3ccc(Br)cc3[C@@H]2N2C(=O)N(c3cccc(F)c3)C(=O)[C@]12C | inconclusive: 14.1 µM [inhibitor, partial curve, poor fit]
58 | Cc1ccc(O)c(NC(=O)CCS(=O)(=O)c2nc(-c3cccs3)cc(C(F)(F)F)n2)c1 | inconclusive: 1.12 µM [inhibitor, full curve, poor fit]
59 | COc1ccc(N(CC(=O)Nc2cc(OC)cc(OC)c2)S(=O)(=O)c2c(C)noc2C)cc1 | inactive
60 | CC(Sc1nc2cc(Cl)ccc2s1)C(=O)Nc1cccc(S(=O)(=O)N2CCOCC2)c1 (stereo not given) | inactive
61 | Cc1ccc2c(C)c(C(=O)NCC3CCOCC3)oc2c1C | inconclusive: 0.251 µM [inhibitor, full curve, poor fit]
62 | S=c1[nH]nc(C2CCCCC2)n1/N=C/c1ccc(Br)cc1 | inactive
63 | O=C(NCc1cc(C(F)(F)F)cc(C(F)(F)F)c1)C1CC(c2cccc([N+](=O)[O-])c2)=NO1 (stereo not given) | inconclusive: 79.4 µM [inhibitor, partial curve, poor fit]
64 | O=C(Nc1ccccc1F)c1cnc(N2CCCCC2)c2ccccc12 | inconclusive: 0.0891 µM [inhibitor, full curve, poor fit]
65 | Cc1ccccc1C(=O)c1cccn1CC(=O)NCCCN1CCCCC1 | inactive

2 compounds drawn at random from those above:
Row | SMILES | Potency
65 | Cc1ccccc1C(=O)c1cccn1CC(=O)NCCCN1CCCCC1 | inactive
64 | O=C(Nc1ccccc1F)c1cnc(N2CCCCC2)c2ccccc12 | inconclusive: 0.0891 µM [inhibitor, full curve, poor fit]
